PubChem BioAssay AID504793 – Drosophila RNAi Screening Center – 2011

Screen: 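Whole-genome screen for parts of the DNA damage checkpoint at G2/M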 (primary screen)
Cells: Drosophila S2R+ cells
Knock-down reagent: long dsRNA against Drosophila genes, about 0.25 µg dsRNA per well
Timing: 4 days of dsRNA, then 4 hours of drug before read-out
Challenge: doxorubicin 0.5 µM for 4 hours to cause double-strand breaks, in cells also given a low, harmless dose of dsRNA against nbs to sensitise the assay
Measured: 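Per-well count of mitotic cells stained for phospho-histone H3 after doxorubicin exposure, used as mitotic index; counts are raw and not normalised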
Reading the numbers: mitotic cells: higher = more cells in mitosis, weaker G2 arrest
Hit rule: 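a call needs confirmation in secondary tests, with other dsRNAs and a check of mitotic timing without damage, not just a high primary count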
Calls: active = confirmed in follow-up tests; inactive = not confirmed
The deposit covers about 23,000 reagents; this is a random part of those that have a named target and a result. Of all reagents, 62 (0.27%) are marked active. 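Calls come from follow-up tests whose scores are not deposited, so confirmed genes may have low counts here; counts are not normalised per plate.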 Raw values vary from plate to plate and are shown uncorrected. A plus sign joins genes that one reagent is predicted to hit.

mitotic cells, replicate 1, by gene knocked down and reagent
Calx: DRSC13457 4 inactive; DRSC13459 11 inactive; DRSC16599 9 inactive; DRSC21850 19 inactive; DRSC24386 10 inactive
PhKgamma: DRSC20268 6 inactive; DRSC27226 5 inactive
CG2121: DRSC06819 8 inactive; DRSC06820 6 inactive
CG31223: DRSC15115 5 inactive
CG13738: DRSC10065 7 inactive; DRSC23534 8 inactive
LManII: DRSC01986 6 inactive
Blm: DRSC16911 14 inactive
CG33557: DRSC17854 10 inactive
be: DRSC19607 7 inactive; DRSC19944 11 inactive; DRSC19945 11 inactive
spd-2: DRSC09682 7 inactive; DRSC26762 9 inactive
Dup99B: DRSC22877 9 inactive; DRSC29633 3 inactive
CG31816: DRSC01547 3 inactive
Prosalpha3: DRSC04644 25 inactive
Rpp21: DRSC22480 15 inactive; DRSC29867 6 inactive
lbe: DRSC16985 9 inactive; DRSC23597 5 inactive
gdrd: DRSC10020 4 inactive
CG13800 (retired record): DRSC08334 2 inactive; DRSC28906 2 inactive
Rassf: DRSC15612 8 inactive; DRSC28891 6 inactive
Teh4: DRSC08457 2 inactive
Pis: DRSC20178 8 inactive; DRSC29976 5 inactive
CG31780 + CG18477: DRSC26122 10 inactive
CG1943: DRSC12576 3 inactive
xit: DRSC18364 7 inactive
gammaTub23C: DRSC00820 24 inactive; DRSC27651 5 inactive
Acf: DRSC14101 5 inactive; DRSC29797 11 inactive
CG33969 + fbl: DRSC11886 4 inactive
Vha13: DRSC16895 10 inactive
